For this data set, the system named is ethanol-preferring rats (strain going back to the Finnish AA rat line). Put plainly: Voluntary alcohol consumption of genetic ethanol-preferring rats (free choice of 10% ethanol or water). It counts as in vivo. The settings on record: female ethanol-preferring rats. The protocol: Influence of deoxypeganine HCl on the voluntary alcohol consumption of genetic ethanol-preferring rats.
The experimental animals were in each case 6 female rats of a strain which goes back to the Finnish AA rat line. The animals of this inbred strain prefer 10% alcohol as a drinking liquid if pure water is additionally offered to them (free choice).
The animals were kept individually in type 3 Makrolon cages at a room temperature of 23° C. and air changes nine times per hour. Dry feed granules (Altromin 1311; meal to which vitamins, minerals, amino acids and trace elements are added; manufacturer: Altromin
Spezialfutterwerke GmbH, Lage), drinking water and ethanol solution (10% v/v) were available to them in unrestricted amounts only during the dark phase from 20.00 hours to 08.00 hours, namely in special vessels which guarantee loss-free feeding and drinking. The amounts consumed were determined gravimetrically; the amounts of drink automatically and continuously with the aid of twelve weighing cells. […]
Table: Influence of deoxypeganine HCl on the ingestive behavior of female ethanol-prefering rats (n=6). The values determined during the three-day preliminary period in each case are in round brackets.

The structures appear in SMILES notation.

Regarding `Cl.c1ccc2c(c1)CN1CCCC1=N2` [deoxypeganine HCl], the “Body weight, BW” value was 215 ± 6.2 g (n=6, 15 mg/kg orally) and 213 ± 4.9 g (n=6, 30 mg/kg orally).
